# Measurements taken from publication PMC2423471.
# Amino acid sequences for entries named in this document (tags omitted). A change or cut given only in a name is not applied to a line headed by its entry. Chains listed by the source or under a name are the forms on record and can include a tag or linker.
# mature HuISG15 (purified recombinant) (P05161, form named): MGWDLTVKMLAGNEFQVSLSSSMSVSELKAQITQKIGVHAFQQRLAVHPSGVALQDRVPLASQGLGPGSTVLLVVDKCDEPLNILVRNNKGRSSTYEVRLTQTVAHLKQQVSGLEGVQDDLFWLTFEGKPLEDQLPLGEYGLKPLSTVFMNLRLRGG
# UniProt P22314: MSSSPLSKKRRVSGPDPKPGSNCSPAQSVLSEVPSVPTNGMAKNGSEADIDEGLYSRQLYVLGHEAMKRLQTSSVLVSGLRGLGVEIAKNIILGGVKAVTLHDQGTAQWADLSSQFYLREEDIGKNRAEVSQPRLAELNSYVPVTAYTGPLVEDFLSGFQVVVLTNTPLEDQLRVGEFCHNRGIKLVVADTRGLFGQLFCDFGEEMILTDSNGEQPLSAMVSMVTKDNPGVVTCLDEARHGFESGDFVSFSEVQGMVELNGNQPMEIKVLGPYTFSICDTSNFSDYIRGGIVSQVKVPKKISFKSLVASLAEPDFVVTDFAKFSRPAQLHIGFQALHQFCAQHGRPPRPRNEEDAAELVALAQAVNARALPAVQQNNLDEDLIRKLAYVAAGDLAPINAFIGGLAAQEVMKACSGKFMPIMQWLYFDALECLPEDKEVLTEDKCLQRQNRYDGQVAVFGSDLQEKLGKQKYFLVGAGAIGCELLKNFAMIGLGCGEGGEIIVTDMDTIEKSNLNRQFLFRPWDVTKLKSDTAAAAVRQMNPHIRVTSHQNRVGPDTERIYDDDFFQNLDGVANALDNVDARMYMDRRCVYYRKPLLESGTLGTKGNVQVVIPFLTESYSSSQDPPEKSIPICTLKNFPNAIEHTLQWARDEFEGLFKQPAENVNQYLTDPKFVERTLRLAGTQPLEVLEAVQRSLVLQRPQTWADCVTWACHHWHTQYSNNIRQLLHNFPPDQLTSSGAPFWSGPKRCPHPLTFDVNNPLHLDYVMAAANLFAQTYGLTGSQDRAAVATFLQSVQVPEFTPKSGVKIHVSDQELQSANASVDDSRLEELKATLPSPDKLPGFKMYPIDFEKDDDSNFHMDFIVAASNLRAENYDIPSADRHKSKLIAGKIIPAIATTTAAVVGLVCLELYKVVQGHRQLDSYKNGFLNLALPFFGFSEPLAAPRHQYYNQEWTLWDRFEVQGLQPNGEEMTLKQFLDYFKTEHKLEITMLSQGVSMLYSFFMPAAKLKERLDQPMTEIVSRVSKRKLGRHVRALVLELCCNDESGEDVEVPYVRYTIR
# UniProt P61088: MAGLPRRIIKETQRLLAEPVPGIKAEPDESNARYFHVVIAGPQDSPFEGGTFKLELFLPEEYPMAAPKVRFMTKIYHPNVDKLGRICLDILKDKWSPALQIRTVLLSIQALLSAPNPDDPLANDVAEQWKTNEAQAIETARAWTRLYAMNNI
# UniProt Q9NPD8: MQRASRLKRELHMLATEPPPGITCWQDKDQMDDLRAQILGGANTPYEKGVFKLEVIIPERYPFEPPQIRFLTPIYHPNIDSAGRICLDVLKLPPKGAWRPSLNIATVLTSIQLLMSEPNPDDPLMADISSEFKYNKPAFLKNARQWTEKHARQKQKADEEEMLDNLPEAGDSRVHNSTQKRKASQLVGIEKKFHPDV
# Results are given in words; binding and its absence hold for the method and conditions named. For part of these data: Binding seen in cells or lysates may run through a third protein. Some binding calls cover weakened binding; strength is not graded here.
# Experiments:
# [1] = biological target: FLAG-tagged HuISG15 (human) (UniProt P05161); assay: co-IP; as the co-immunoprecipitation of Figure 3, but samples obtained in a more concentrated way (Figure S2b); anti-FLAG affinity gel, anti-V5 blot
# [2] = biological target: HuUbE1 (purified recombinant) (human) (UniProt P22314); assay: in vitro thiolester formation, non-reducing SDS-PAGE; 2.5 µM UbcH8, 200 nM UbE1 or UbE1L, 7.5 µM mature Hu- or AgmISG15; 50 mM HEPES pH 8.0, 100 mM NaCl, 1 mM Mg-ATP, 45 min at 37°C; covalent E1-ISG15 thiolester band on non-reducing SDS-PAGE, disrupted by β-ME; both purified
binding [1],Substance,binding [2]
binds weakly,V5-tagged UbcH13 (from UniProt P61088 1-152) (enzyme),–
binds weakly,V5-tagged UbcH17 (from UniProt Q9NPD8 1-197) (enzyme),–
–,mature HuISG15 (purified recombinant) (from UniProt P05161 1-157),"no binding (tested: 7.5 µM HuISG15, 200 nM UbE1)"
